The structures appear in SMILES notation. The campaign covered roughly 2,400 compounds. About 20 (0.8%) were called active.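 The calls were made as follows: active = AC50 no more than ten times the highest tested concentration, or full inhibition at every dose giving a flat fit (cut at about 30 µM in these data); inconclusive = flat fit with activity between 30% and 70%, or poor-quality invalid fit; inactive = AC50 more than ten times the top tested dose.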 The list shows a part of the results. Some results are limits rather than exact numbers.

The test can be described thus: luciferase-based ADP detection interference – biochemical, luminescence, cell-free, homogeneous, artefact control for GSK-3a inhibitor project, dose response (AID 463205).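 Also: kinase-free counter-screen against the ADP-Glo detection reagents only; potency is for inhibitors that reduce the luminescence signal.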 Particulars: Cell-free ADP-Glo detection reagents, 5 uM ADP. Background: ADP-Glo turns the ADP formed in a reaction into a luminescent signal.
A word on the AC50: it is the concentration giving half of the maximal activity seen. As for `C=C(C)CSc1nnc([C@@H](N)Cc2c[nH]c3ccccc23)o1`, the AC50 is inactive: > 30 µM.
For the compound `Cc1cc(OCc2cc(C(=O)O)oc2C)c2c3c(c(=O)oc2c1)CCCC3`, the AC50 is inactive: > 30 µM.
On to `CC(C)CN(C(=O)CN1CC=C(c2ccccc2)CC1)c1c(N)n(CC(C)C)c(=O)[nH]c1=O`, for which the AC50 was inactive: > 30 µM.
Take `O=c1[nH]c(=O)n(Cc2ccc(F)cc2)c(O)c1C=NCCCn1ccnc1`: the AC50 is inactive: > 30 µM.
On to `COc1cc2c3c(c1OC)-c1cc(O)ccc1CC3NCC2` (centres undefined), for which the AC50 is inactive: > 30 µM.
As to `CCC(=NCCCO)c1c(O)n(-c2ccc(OC)cc2)c(=O)[nH]c1=O`, the AC50 is inactive: > 30 µM.
As to `COc1ccc2nc(NC(=O)CCc3nc(C4=CCN(C)CC4)no3)sc2c1`, the AC50 was inactive: > 30 µM.
Then `C=CCn1c(O)c(C=NCCCn2ccnc2)c(=O)[nH]c1=O`, with inactive: > 30 µM; and `O=C(NCc1ccc(C(=O)N2CCC3(CC2)OCCO3)cc1)c1ccc2c(c1)OCO2`, with inactive: > 30 µM.
With `O=C1Nc2ccccc2Sc2ccccc21`, the AC50 is inactive: > 30 µM.
With `O=c1[nH]c(=S)n(C2CC2)c(O)c1C=NCc1cccnc1`, the AC50 was inactive: > 30 µM.
As to `CC(C)N1C(=O)/C(=C/C=C/c2ccco2)C(=O)N(Cc2ccco2)C1=O`, the AC50 is inactive: > 30 µM.
For the compound `CCCCn1c(O)c(C(CC)=NCCCn2ccnc2)c(=O)[nH]c1=O`, the AC50 was inactive: > 30 µM.
On to `C[C@H]1CCC[C@H](O)CCCCCc2cc(O)cc(O)c2C(=O)O1`, for which the AC50 is inactive: > 30 µM.
On to `O=c1[nH]c(=S)n(CCC2=CCCCC2)c(O)c1C=NCCCn1ccnc1`, for which the AC50 is inactive: > 30 µM.
As to `CC(Cc1ccsc1)NCc1cn[nH]c1-c1ccc(F)cc1F` (centres undefined), the AC50 is inactive: > 30 µM.
In the case of `COc1ccccc1-n1c(O)c(C=NCc2ccc3c(c2)OCO3)c(=O)[nH]c1=O`, the AC50 was inactive: > 30 µM.
In the case of `CCC(=NCCO)c1c(O)n(C2CCCCC2)c(=O)[nH]c1=O` it was inactive: > 30 µM; in that of `CC1CCC[C@H](O)CCCCCc2cc(O)cc(O)c2C(=O)O1` (some centres undefined), inactive: > 30 µM; in that of `Oc1ccc(/C=N/NP(=S)(c2ccccc2)c2ccccc2)cc1O`, inactive: > 30 µM.
For the compound `NC(=O)c1cn(C2OC(CO)C(O)C2O)c2ncnc(N)c12` (centres undefined), the AC50 was inactive: > 30 µM.
As to `CCC(=NCCCn1ccnc1)c1c(O)n(-c2ccc(OC)cc2)c(=O)[nH]c1=O`, the AC50 is inactive: > 30 µM.
Turning to `O=[N+]([O-])c1cccnc1N1CCCNCC1`, the AC50 was inactive: > 30 µM.
In the case of `O=C(c1ccc2c(c1)OCO2)N1CCC2(CC1)OCCO2` it was inactive: > 30 µM; in that of `COc1ccccc1-n1c(O)c(C=NCCCn2ccnc2)c(=O)[nH]c1=O`, inactive: > 30 µM; in that of `COc1ccc(-n2c(O)c(C(C)=NCCCn3ccnc3)c(=O)[nH]c2=O)cc1`, inactive: > 30 µM.
On to `O=C(NCc1ccc(C(=O)N2CCC3(CC2)OCCO3)cc1)c1cccc(Br)c1`, for which the AC50 is inactive: > 30 µM.
`CCCCn1c(O)c(C=NCCCn2ccnc2)c(=O)[nH]c1=O`: the AC50 was inactive: > 30 µM.
In the case of `CCOc1ccccc1-n1c(O)c(C=NCc2ccc3c(c2)OCO3)c(=O)[nH]c1=O` it was inactive: > 30 µM.
For the compound `O=c1[nH]c(=O)n(Cc2ccco2)c(O)c1C=NCCCn1ccnc1`, the AC50 is inactive: > 30 µM.
With `CCOc1ccc(-n2c(O)c(C=NCCCn3ccnc3)c(=O)[nH]c2=O)cc1`, the AC50 is inactive: > 30 µM.
For the compound `COc1ccc(-n2c(O)c(C=NCCN3CCN(C(C)=O)CC3)c(=O)[nH]c2=S)cc1`, the AC50 is inactive: > 30 µM.
Take `O=C1CN=C(c2cccc(Br)c2)c2cc(Br)ccc2N1`: the AC50 was inactive: > 30 µM.
As for `CN(C)C(=O)Oc1ccc(OC(=O)N(C)C)cc1`, the AC50 is inactive: > 30 µM.
In the case of `O=c1[nH]c(=O)n(C2CCCCCC2)c(O)c1C=NCCCN1CCOCC1`, the AC50 was inactive: > 30 µM.
With `CCN1C(=O)C(=C2C=C(C)N(Cc3ccco3)C(C)=C2)C(=O)N(CC)C1=S`, the AC50 is inactive: > 30 µM.
Then `Nc1ncc([N+](=O)[O-])s1`, with inactive: > 30 µM; and `CCC(=NCc1ccco1)c1c(O)[nH]c(=O)[nH]c1=O`, with inactive: > 30 µM.
Regarding `Cc1ccccc1NC1=NCCCS1`, the AC50 is inactive: > 30 µM.
Take `C=CCn1c(O)c(C(C)=NCCCn2ccnc2)c(=O)[nH]c1=O`: the AC50 is inactive: > 30 µM.
In the case of `Cn1c(O)c(C=NC2CCN(Cc3ccccc3)CC2)c(=O)[nH]c1=O`, the AC50 was inactive: > 30 µM.
As for `CN(C)C(=O)Oc1ccc2c(c1)O/C(=C\c1cccc([N+](=O)[O-])c1)C2=O`, the AC50 is inactive: > 30 µM.
In the case of `COc1ccc(-n2c(O)c(C=NCc3ccc4c(c3)OCO4)c(=O)[nH]c2=O)cc1`, the AC50 was inactive: > 30 µM.
As to `CCCCn1c(O)c(C=NCCCN(CC)CC)c(=O)[nH]c1=O`, the AC50 was inactive: > 30 µM.
Regarding `CCCCCCN=C(CC)c1c(O)n(CCCC)c(=O)[nH]c1=O`, the AC50 is inactive: > 30 µM.
Consider `O=c1[nH]c(=O)n(C2CCCCC2)c(O)c1C=NCCCn1ccnc1`, for which the AC50 was inactive: > 30 µM.
`CN1CCc2nc3sc(C(=O)NC4CC4)c(N)c3cc2C1`: the AC50 is inactive: > 30 µM.
Take `COc1cc2c(cc1OC)-c1c(OC)c(OC)c(OC)c3ccnc(c13)C2=O`: the AC50 was inactive: > 30 µM.
As for `CN(C(=O)CN1CC=C(c2ccccc2)CC1)c1c(N)n(Cc2ccccc2)c(=O)[nH]c1=O`, the AC50 was inactive: > 30 µM.
Then `CSc1nnc([C@@H](N)Cc2c[nH]c3ccccc23)o1`, with inactive: > 30 µM; and `O=c1[nH]c(=O)n(CCC2=CCCCC2)c(O)c1C=NCCCn1ccnc1`, with inactive: > 30 µM.
Consider `Nc1c(C(=O)NCc2ccco2)c2nc3ccccc3nc2n1CCN1CCOCC1`, for which the AC50 was inactive: > 30 µM.
In the case of `CCCCn1c(O)c(C(C)=NCCCn2ccnc2)c(=O)[nH]c1=O` it was inactive: > 30 µM; in that of `O=c1[nH]c(=S)n(Cc2ccc(F)cc2)c(O)c1C=NCCCn1ccnc1`, inactive: > 30 µM.
